Construct, isoform or probe ends are uncertain for at least one entry.
Test system: GST-TsMafK (Tridacna squamosa)
Assay: EMSA
Conditions: homodimer, one or two dimers per probe; Molecular Probes fluorescence-based EMSA kit (Invitrogen), manufacturer's instructions; pH and temperature not stated; recombinant protein; protein details: N-terminal GST (pGEX-4T-1)

TTAGATATTGTGATACAGCAGACTTGCGATTAGATATTGTGATACAGCAGACTTGCGA (double strand) [TsARE probe (TsATPGD promoter core element)]
binding result: binds

— article PMC11591149
